According to PubChem BioAssay AID2685 (National Center for Advancing Translational Sciences (NCATS), 2010):
Some of the results follow. The main result of the screen is listed elsewhere. These columns were measured beside it and carry no call. The list favours compounds with an active or inconclusive main result. The note in brackets gives the kind of curve behind each potency; many fits are weak.

Test: qHTS Assay for Lipid Storage Modulators in Drosophila S3 Cells;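 for cell number change: cells counted by Cell Tracker Red CMTPX staining in the red channel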
Settings: BODIPY lipid droplet fluorescence, 18-24 h; for cell number change: measured here: cell count max response, cells fed with added oleic acid
In short: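 Laser-scanning cytometry quantifies lipid droplet accumulation (500–530 nm total intensity; droplet/cell object ratio) in oleic acid-fed (400 uM added) Drosophila S3 cells treated with a concentration series. 20 uM Triacsin C defined 100% inhibition.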

[1] = measured here: lipid fluorescence (Fed channel) AC50, cells fed with added oleic acid
[2] = measured here: cell number channel AC50, cells fed with added oleic acid

SMILES	cell number change [%]	AC50 [1]	AC50 [2]
COc1ccc(N(CC(=O)Nc2ccc(OC)c(Cl)c2)S(=O)(=O)c2c(C)noc2C)cc1	-22.7	16.4 µM [falling, single point]	
O=C(CNC(=O)c1ccc(N2C(=O)c3ccccc3C2=O)cc1)OCC(=O)c1ccccc1	11.2	0.651 µM [falling, partial curve, poor fit]	
COc1ccc(-c2csc(Nc3ccccc3)n2)cc1	24.6	0.164 µM [falling, full curve, poor fit]	
CC1Cc2ccccc2N1C(=O)COC(=O)c1cc(Br)ccc1O (stereo not drawn)	23.3		
O=C(Nc1ccc2cn[nH]c2c1)c1c(Cl)cccc1Cl	-35.2	18.4 µM [falling, single point]	20.6 µM [falling, single point]
CC(C)CC(=O)NC(=S)Nc1ccc(F)cc1F	18.2		
O=C(NCc1ccccn1)c1nnc(Cc2ccc(Cl)cc2)o1	16.3	6.51 µM [rising, single point]	
O=S(=O)(c1ccccc1)c1nc(-c2ccccc2)oc1NCCCN1CCOCC1	-19.8		0.517 µM [rising, full curve, poor fit]
CC(=O)c1cccc(NC(=O)c2ccc(N(Cc3ccccc3C)S(C)(=O)=O)cc2)c1	-35.1		20.6 µM [falling, partial curve, poor fit]
COc1ccc(OC)c(S(=O)(=O)Nc2ccccc2C(=O)O)c1			6.51 µM [falling, single point]
Cc1nc2cc(Cl)ccc2n1-c1ccccc1	-14.9	18.4 µM [rising, single point]	
Cc1ccccc1CNC(=O)C(=O)NCC1OCCCN1S(=O)(=O)c1ccc(F)cc1C (stereo not drawn)	7.8	18.4 µM [rising, single point]	
CCOc1ccc(C(=O)Nc2cc(-c3nc4ccccc4[nH]3)ccc2Cl)cc1[N+](=O)[O-]	9.5	0.13 µM [falling, single point]	
C/C(=C1/C(=O)N(c2ccc([N+](=O)[O-])cc2)N=C1c1ccccc1)N(C)C	-15.3	7.31 µM [falling, single point]	
Cc1nn(Cc2ccc(Br)cc2)c(C)c1NC(=O)c1nn(C)cc1Cl	-12.2		
Cc1cc(=O)[nH]c(=O)n1Cc1ccccc1	36.3	18.4 µM [rising, single point]	29.1 µM [rising, single point]
CCOc1ccc(Nc2nc(Cc3nnc(SCC(=O)NC4CCCC4)n3C)cs2)cc1		20.6 µM [rising, single point]	
Oc1c(C(Nc2ccccn2)c2ccccn2)ccc2cccnc12 (stereo not drawn)	-11.1	0.82 µM [rising, single point]	
Cc1cc(C)nc(NC(=O)CSc2nnnn2-c2ccccc2)n1	23.5	0.731 µM [rising, full curve, poor fit]	
CCn1cc(/C=N\NC(=O)c2ccc3c(c2)c(C)c(C)n3Cc2ccccc2)c(C)n1		0.411 µM [rising, full curve]	0.259 µM [rising, full curve]
Cc1ccc(-c2nc(CS(=O)(=O)CC(=O)NCCN3CCOCC3)c(C)o2)cc1	0.806		

SMILES	cell number change [%]	AC50 [1]	AC50 [2]
CCN(c1ccccc1)S(=O)(=O)c1ccc(Cl)c(NC(=O)CN2CCCCCC2)c1	-16.4		
C/C(=N/NS(=O)(=O)c1ccc(C)cc1)c1ccc(NC(=O)C(F)(F)F)cc1	-6.23		6.51 µM [falling, single point]
CCCNC(=S)N(Cc1ccccc1)Cc1nc2ccccc2c(=O)[nH]1	36.8		14.6 µM [rising, partial curve]
CCOc1ccccc1NS(=O)(=O)c1cn(C)c(=O)n(C)c1=O	-0.966	18.4 µM [rising, single point]	
Clc1ccc(-c2n[nH]c3c2CCC3)c(Cl)c1	-15.7	58 µM [falling, partial curve, poor fit]	
COC(=O)c1ccc(C(=O)OC)c(NC(=S)N2CCC(C)CC2)c1	15	32.6 µM [rising, single point]	
O=C1CSC(c2ccc([N+](=O)[O-])cc2)N1Cc1ccccc1 (stereo not drawn)	-12.2	1.16 µM [falling, full curve, poor fit]	
COc1ccc(NC(=O)CN(C)C(=O)c2c(-c3c(F)cccc3Cl)noc2C)cc1	-37.3	23.1 µM [falling, single point]	20.6 µM [falling, single point]
O=C(O)c1cccc(NC(=O)c2cccc(S(=O)(=O)N3CCc4ccccc4C3)c2)c1		13 µM [rising, partial curve, poor fit]	
Cc1c(O)ccc(C(=O)CN2CCN(c3ccc(F)cc3)CC2)c1O	8.36	29.1 µM [rising, single point]	
COC(=O)c1cc(NC(=O)CN2CCC(C(N)=O)(N3CCCCC3)CC2)cc(C(=O)OC)c1	73.7	16.4 µM [rising, partial curve, poor fit]	16.4 µM [rising, partial curve]
COc1ccc2c(C(=O)c3ccc(C)cc3)n(CCC(N)=O)[n+]([O-])c2c1	7.19	0.00461 µM [falling, full curve, poor fit]	
Clc1cccc(/C(Cc2nc3ccccc3[nH]2)=N\Nc2ccccc2)c1	-7.03	29.1 µM [falling, single point]	
O=C(O)C1CCCCC1C(=O)N1CCN(S(=O)(=O)c2ccc(F)cc2)CC1 (stereo not drawn)	-19.1		
COc1ccc(CNC(=O)Cn2ccc(NC(=O)OCc3ccccc3)nc2=O)cc1	-3.73	10.3 µM [rising, single point]	
CCc1cc2c(=O)c(-c3cscn3)coc2cc1O	-16.3	16.4 µM [rising, single point]	
CN(CCc1ccccn1)C(=O)Nc1ccc(Cl)cc1	22.3	5.8 µM [rising, partial curve]	1.84 µM [rising, partial curve, poor fit]
CCNc1nc(NC(C)C)nc(SCCOc2ccc(C)cc2)n1	3.35		
CCOC(=O)N1CCN(CCC(=O)Nc2cc(C)ccc2C)CC1	-1.65		
CCN(CCn1cccn1)Cc1nc(-c2ccc(C(=O)OC)cc2)no1	1.14	0.411 µM [falling, full curve, poor fit]	
O=C(NCC(=O)N(c1ccccc1)C(C(=O)NC1CCCCC1)c1cccnc1)c1ccco1 (stereo not drawn)	22.1		

Filtered by structure: the entries above containing bromine (2)
SMILES	cell number change [%]	AC50 [1]	AC50 [2]
CC1Cc2ccccc2N1C(=O)COC(=O)c1cc(Br)ccc1O (stereo not drawn)	23.3		
Cc1nn(Cc2ccc(Br)cc2)c(C)c1NC(=O)c1nn(C)cc1Cl	-12.2		

Next compounds.

SMILES	cell number change [%]	AC50 [1]	AC50 [2]
O=C(NC(=S)Nc1ccc(N2CCOCC2)c(Cl)c1)c1cncc(Br)c1	-7.19	29.1 µM [falling, single point]	
C=CCn1c(SCC(=O)N2c3ccccc3Sc3ccccc32)nnc1-c1ccco1	-6.45		
CCC(C(=O)OCC(=O)Nc1cc(Cl)cc(Cl)c1)c1ccccc1 (stereo not drawn)	-43.1	0.651 µM [falling, partial curve, poor fit]	20.6 µM [falling, partial curve]
Cc1ccc(Nc2nc(-c3sc(NC(=O)c4ccc([N+](=O)[O-])cc4)nc3C)cs2)cc1	-37.5		9.2 µM [falling, partial curve]
N=C(N)SCc1cccc2ccccc12	-17.5	23.1 µM [falling, single point]	
Cc1cccc(S(=O)(=O)c2c(N)n(-c3ccccc3)c3nc4ccccc4nc23)c1	9.41	23.1 µM [rising, single point]	
C=CCn1c(SCc2nc3c(c(=O)[nH]c(=O)n3CCCC)n2CCC)nnc1-c1ccccc1	-14		
FC(F)(F)c1cccc(Cc2noc(CN3CCC(c4ccncc4)CC3)n2)c1	-38.4	29.1 µM [falling, single point]	29.1 µM [falling, single point]
COCCNC(=S)N/N=C1\CC(C)CC(C)(C)C1 (stereo not drawn)	12.8		
Cc1ccc(C2CC2c2n[nH]c(=S)n2-c2ccc(Cl)cc2)cc1 (stereo not drawn)	-55.3	0.184 µM [falling, full curve, poor fit]	20.6 µM [falling, single point]
COc1cc(-c2nc(-c3ccccc3)c(-c3ccc(F)cc3)[nH]2)cc2c1OCO2	2.38	5.17 µM [rising, single point]	
O=S(=O)(NCc1ccccn1)c1ccc(Cl)c(C(F)(F)F)c1		0.116 µM [rising, single point]	
COC(=O)[C@H](CCSC)NC(=O)NCCC1=CCCCC1	-29.5	23.1 µM [falling, partial curve, poor fit]	0.00184 µM [falling, full curve, poor fit]
O=C(C1CCCCC1)N1CCN(c2ccccc2F)CC1	10.5		
Cc1ccc(COn2c(-c3ccc(Cl)cc3)nc3ccc([N+](=O)[O-])cc32)cc1	-9.66	29.1 µM [falling, single point]	
CCOc1ccc(S(=O)(=O)N2CCCCC2)cc1NC(=O)CN1C(=O)NC(C)(C2CC2)C1=O (stereo not drawn)	-20.4	6.51 µM [falling, single point]	
COc1cccc(NC(=O)CSc2nc3scc(C)c3c(=O)[nH]2)c1		0.116 µM [falling, full curve]	
O=C(Oc1ccc2c(c1)OCO2)c1ccncc1	-11.8	6.51 µM [falling, single point]	
O=C(Nc1cccc(C(=O)N2CCOCC2)c1)c1ncn[nH]1	-2.43	0.206 µM [falling, full curve]	
